Patent publication US20170369542A1 (Pieris, published 2017)
Results are given in words; binding and its absence hold for the method and conditions named. Some entries that bind do so weakly or less than the wild type.

Molecular target: T1, synthetic non-modified human Hepcidin-25 (human, not fully specified)
T1 peptide: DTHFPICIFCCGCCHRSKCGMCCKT
Assay: competition ELISA, free human hepcidin against captured biotinylated hepcidin

B1: lipocalin mutein of SEQ ID NO: 1, linked to albumine-binding domain (ABD) (SEQ ID NO: 15) (designed binder)
chain: QDSTSDLIPAPPLSKVPLQQNFQDNQFHGKWYVVGLAGNEVLREDKDPMKMWATIYELEEDKSYNVTIVMFLAKKCEYLFQTFVPGSQPGEFTLGDIKSSPGRTSGLVRVVSTNYNQHAMVFFKVVWQNREVFWITLYGRTKELTSELKENFIRFSKSLGLPENHIVFPVPIDQCIDGSAGAVDANSLAEAKVLANRELDKYGVSDYYKNLINNAKTVEGVKALIDEILAALPSAWSHPQFEK
notes: also called ABD-fusion protein
For B1, the binding was “binds”.
